The subject of the assay is Salmonella enterica serovar Typhimurium SL1344. Briefly: bacterial growth OD600 after 18 h with compound and polymyxin B; higher = more bacterial growth (less inhibition). To be noted: 50 µM, Mueller-Hinton broth.

The list shows a part of the results. These are raw signals, not scaled to a control.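 In the initial screen, polymyxin B was used at a concentration that permeabilizes Salmonella's outer membrane but not its inner membrane. Maximum growth was set by DMSO wells with or without polymyxin B. Since plates varied, data were ranked per plate, and compounds giving the lowest OD600 advanced as hits.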

Turning to `O=C(c1ccccc1)N1CCC(C2(c3ccccn3)NC(=O)N(CCc3cccs3)C2=O)CC1` (centres undefined), where the note is “polymyxin B 0.75 µg/mL”, the “bacterial growth OD600” value was determined as 0.786.

As to `O=C(NCC1CCCN(C(=O)CCCn2cncn2)C1)c1ccc(-c2ccccc2)cc1` (centres undefined), where the note is “polymyxin B 1 µg/mL”, the “bacterial growth OD600” value turned out to be 0.938. Same read-out and setting: with `O=C(CCCc1ccccc1)Nc1ccnn1C1CCN(C(=O)C2CCCC2)CC1` the figure was 0.68; with `CCn1nc(C)c(CN2CCCC(CCC(=O)Nc3ccccc3F)C2)c1C` (centres undefined), 0.893; with `CCC(C)Nc1ccc(C(=O)N2CCC(Oc3cccnc3)CC2)cn1` (centres undefined), 1.01. `COCCNC(=O)c1ccc(OC)cc1OC1CCN(CCc2ccccc2)CC1`: the “bacterial growth OD600” value (polymyxin B 1 µg/mL) was found to be 1.22. The same measure, in the same setting: the value for `CC(C)(C)NC(=O)NC1CC(=O)N(Cc2cccc3ccccc23)C1` (centres undefined) was 1.13; that for `COC(=O)[C@@H](NC(=O)c1coc(Cn2cnc3ccccc32)n1)c1ccccc1` was 0.933. Take `Cc1c(C(=O)N2CCN(C(=O)c3ccco3)CC2)cnn1-c1ncc2c(n1)-c1ccccc1CCC2`: the “bacterial growth OD600” value (polymyxin B 0.75 µg/mL) stood at 0.803. For `c1ccc(-c2ncc3c(n2)CCCC3NC2CCC2)cc1` (centres undefined), under “polymyxin B 1 µg/mL”, the “bacterial growth OD600” value stood at 0.976. For `O=C(CCc1cccnc1)N1CCC(C2CCN(Cc3cccnc3)CC2)C1` (centres undefined), under “polymyxin B 0.75 µg/mL”, the “bacterial growth OD600” value turned out to be 0.854. In the case of `CC(C)c1nc(CNC(=O)c2ccc(OC3CCN(C(=O)C4CC4)CC3)cc2)cs1`, the “bacterial growth OD600” value (polymyxin B 1 µg/mL) turned out to be 0.854. Consider `O=C(NCc1ccc2c(c1)OCO2)c1ccc(N2CCC(NCCCc3cccnc3)CC2)cc1`, for which the “bacterial growth OD600” value (polymyxin B 0.75 µg/mL) came out at 0.821. In the case of `CCOc1cccc(CN2CCC(Oc3ccccc3C(=O)N3CCCCC3)CC2)c1`, the “bacterial growth OD600” value (polymyxin B 1 µg/mL) was 0.48. For `CO[C@H]1[C@H](NC(=O)c2ccccn2)c2ccccc2C12CCN(C(=O)c1cc3ccccc3n1C)CC2`, where the note is “polymyxin B 0.75 µg/mL”, the “bacterial growth OD600” value amounted to 0.004.

Regarding `CCC1(CC)CC1C(=O)N1CCc2c(C(=O)NCc3ccc4c(c3)OCO4)c(OC)cc(=O)n2CC1` (centres undefined), for the setting “polymyxin B 0.75 µg/mL”, the “bacterial growth OD600” value worked out at 0.807. As to `COc1cccc(-c2ccc(NC(=O)C3CCCN(C(=O)C4CCC4)C3)cc2)c1` (centres undefined), for the setting “polymyxin B 1 µg/mL”, the “bacterial growth OD600” value was 0.163.

As to `c1ccc2c(c1)CC(NCc1ccc(-n3cccn3)cc1)CO2` (centres undefined), where the note is “polymyxin B 0.75 µg/mL”, the “bacterial growth OD600” value came to 0.534. The same measure, in the same setting: the value for `O=C(N[C@@H]1c2ccccc2C2(CCN(C(=O)/C=C/c3ccc(F)cc3)CC2)[C@H]1O)c1ccccc1` was 0.501.

Source of the values: the supplement of paper PMC12889115.
